Test results taken from article PMC5423270.
Results are given in words; binding and its absence hold for the method and conditions named. Binding seen in cells or lysates may run through a third protein. Some entries that bind do so weakly or less than the wild type.

Amino acid sequences for entries named in this document (tags omitted).
UniProt Q61188: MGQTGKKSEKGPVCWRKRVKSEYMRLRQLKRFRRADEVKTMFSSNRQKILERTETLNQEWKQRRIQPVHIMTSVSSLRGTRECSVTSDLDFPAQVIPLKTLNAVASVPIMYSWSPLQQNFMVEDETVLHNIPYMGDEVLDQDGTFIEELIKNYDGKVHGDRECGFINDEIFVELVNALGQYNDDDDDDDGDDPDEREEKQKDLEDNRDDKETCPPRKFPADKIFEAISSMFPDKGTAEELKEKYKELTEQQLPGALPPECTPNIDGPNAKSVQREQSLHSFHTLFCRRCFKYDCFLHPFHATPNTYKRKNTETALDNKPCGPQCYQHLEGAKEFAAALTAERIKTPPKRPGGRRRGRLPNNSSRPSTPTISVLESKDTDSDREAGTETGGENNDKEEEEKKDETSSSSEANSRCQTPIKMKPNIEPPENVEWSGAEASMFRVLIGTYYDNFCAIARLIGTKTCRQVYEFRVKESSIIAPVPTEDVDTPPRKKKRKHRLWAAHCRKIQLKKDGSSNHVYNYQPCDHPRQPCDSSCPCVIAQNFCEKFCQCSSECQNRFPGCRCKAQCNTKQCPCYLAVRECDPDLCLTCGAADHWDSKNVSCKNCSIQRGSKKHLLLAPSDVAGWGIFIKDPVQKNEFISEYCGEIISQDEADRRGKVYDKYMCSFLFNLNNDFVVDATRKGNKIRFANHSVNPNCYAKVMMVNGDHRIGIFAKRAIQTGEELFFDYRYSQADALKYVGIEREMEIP

Target: Enhancer of zeste homologue 2 (EZH2), endogenous (mouse (endogenous in C2C12)) (UniProt Q61188)
Assay: co-IP; anti-EZH2 IP (IgG as control) from total extracts of C2C12 cells in GM, DM or DM with SB202190, MG132 for 2 h before collecting; 50 mM Tris-HCl pH 7.5, 150 mM NaCl, 1% NP-40; blot for EZH2 and PJA1

binding: binds
B1: Praja1 (PJA1) E3 ubiquitin ligase, endogenous (protein, UniProt O55176 1-578)
chain: MSHQERIASQRRTTAEVPMHRSTANQSKRSRSPFASTRRRWDDSESSGASLAVESEDYSRYPPREYRASGSRRGLAYGHIDTVVARDSEEEGAGPVDRLPVRGKAGKFKDDPEKGARSSRFTSVNHDAKEECGKVESPPAARCSARRAELSKQNGSSASQISSAEGRAAAKGNNSLERERQNLPARPSRAPVSICGGGENTPKSAEEPVVRPKVRNVATPNCMKPKVFFDTDDDDDVPHSTSRWRDAADAEEAHAEGLARRGRGEAASSSEPRYAEDQDARSEQAKADKVPRRRRTMADPDFWAYTDDYYRYYEEDSDSDKEWMAALRRKYRSREQPQSSSGESWELLPGKEELERQQAGAGSLASAGSNGSGYPEEVQDPSLQEEEQASLEEGEIPWLRYNENESSSEGDNESTHELIQPGMFMLDGNNNLEDDSSVSEDLEVDWSLFDGFADGLGVAEAISYVDPQFLTYMALEERLAQAMETALAHLESLAVDVEVANPPASKESIDALPEILVTEDHGAVGQEMCCPICCSEYVKGEVATELPCHHYFHKPCVSIWLQKSGTCPVCRCMFPPPL
